Reference: publication PMC11055835, “Small animal PET imaging with the ^68Ga-labeled pH (low) insertion peptide-like peptide YJL-4 in a triple-negative breast cancer mouse model” (EJNMMI Radiopharmacy and Chemistry, 2024)
Peptide text beside a SMILES is read from it. * marks the point of attachment. X1 = O=C(O)CN1CCN(CC(=O)O)CC(Cc2ccc(NC(=S)*)cc2)N(CC(=O)O)CC1; NOTA = O=C(O)CN1CCN(CC(=O)O)CCN(CC(=O)*)CC1; Ahx = NCCCCCC(=O)O

Legend:
[1] = system: MDA-MB-231 tumor-bearing nude mice; assay: Small animal PET imaging; type: in vivo, BALB/c nude mice; conditions: 2 and 4 h after injection, approx. 7.4 MBq/200 μL via tail vein, static 10-min PET, n = 3
Procedure: Human breast cancer cells (MDA-MB-231 cells from the Cell Bank of the Chinese Academy of Sciences) were cultured in high-glucose DMEM supplemented with 10% fetal bovine serum and 1% double antibiotic mixture (penicillin‒streptomycin mixture) at 37 °C in 5% CO2. Twenty-four four- to five-week-old female specific pathogen-free (SPF) BALB/c nude mice (Hangzhou Ziyuan Experimental Animal Technology Co., Ltd., China, license number: SCXK(Zhe) 2019–0004) were used to establish the MDA-MB-231 tumor model by subcutaneously inoculating 0.1 mL of cell suspension (50 µL of PBS + 50 µL of Matrigel) containing 1 × 10^6 MDA-MB-231 cells at the base of the right forelimb of each mouse. The animal studies were approved by the ethics committee of Qingdao University, and the management of the animals adhered to the animal ethics standards.
Six tumor-bearing nude mice were selected for imaging when the tumor diameter reached 0.8–1.0 cm. Mice were randomly divided into two groups: a YJL-4 group and a control group, with 3 mice per group; each group had two time points. Each tumor-bearing nude mouse was injected with approximately 7.4 MBq/200 μL of ^68Ga-YJL-4 or ^68Ga-kVar7 through the tail vein, and the mice were anesthetized with 2% isoflurane at 2 and 4 h after injection and imaged using static 10-min PET and moderate-resolution whole-body CT. […]

[2] = Circular dichroism (CD) spectroscopy with POPC; type: physicochemical; conditions: peptide 0.1 mg/mL, POPC 2 mmol/L, phosphate buffer 10 mmol/L, pH 8.0 and 4.0, 25 °C, 190-260 nm

## CC(C)C[C@H](NC(=O)[C@H](CC(=O)O)NC(=O)[C@H](CC(C)C)NC(=O)[C@H](CC(C)C)NC(=O)[C@H](CC(C)C)NC(=O)[C@@H](NC(=O)[C@H](CC(=O)O)NC(=O)[C@@H](NC(=O)[C@@H]1CCCN1C(=O)[C@H](Cc1ccccc1)NC(=O)[C@H](CC(C)C)NC(=O)[C@H](CC(C)C)NC(=O)[C@H](CC(=O)O)NC(=O)[C@H](C)NC(=O)[C@H](Cc1ccc(O)cc1)NC(=O)[C@H](CCCNC(=N)N)NC(=O)[C@H](C)NC(=O)[C@H](Cc1c[nH]c2ccccc12)NC(=O)[C@@H]1CCCN1C(=O)[C@H](CC(N)=O)NC(=O)[C@H](CCC(N)=O)NC(=O)[C@H](CC(=O)O)NC(=O)[C@H](CC(=O)O)NC(=O)[C@H](CS)NC(=O)[C@H](C)NC(=O)CCCCCNC(=S)Nc1ccc(CC2CN(CC(=O)O)CCN(CC(=O)O)CCN2CC(=O)O)cc1)[C@@H](C)O)[C@@H](C)O)C(N)=O (stereo partly shown) [^68Ga-YJL-4, metal not drawn] ({X1-Ahx}-ACDDQNPWARYADLLFPTDTLLLDL-NH2)
[1]
  Visualization of livers by PET: clearly visualized

## CC(C)C[C@H](NC(=O)[C@H](CCCCN)NC(=O)[C@H](CC(C)C)NC(=O)[C@H](CC(C)C)NC(=O)[C@H](CC(C)C)NC(=O)[C@@H](NC(=O)[C@H](CCCCN)NC(=O)[C@@H](NC(=O)[C@@H]1CCCN1C(=O)[C@H](Cc1ccccc1)NC(=O)[C@H](CC(C)C)NC(=O)[C@H](Cc1c[nH]c2ccccc12)NC(=O)[C@H](CCCCN)NC(=O)[C@H](CC(C)C)NC(=O)[C@H](Cc1ccc(O)cc1)NC(=O)[C@H](CCCNC(=N)N)NC(=O)[C@H](C)NC(=O)[C@H](Cc1c[nH]c2ccccc12)NC(=O)[C@@H]1CCCN1C(=O)[C@H](CC(N)=O)NC(=O)[C@H](CCC(N)=O)NC(=O)[C@H](CCC(=O)O)NC(=O)[C@H](CCC(=O)O)NC(=O)[C@H](CS)NC(=O)[C@H](C)NC(=O)CN1CCN(CC(=O)O)CCN(CC(=O)O)CC1)[C@@H](C)O)[C@@H](C)O)C(N)=O [^68Ga-kVar7, metal not drawn, reference compound] ({NOTA}-ACEEQNPWARYLKWLFPTKTLLLKL-NH2; N-terminus assumed)
[1]
  Visualization of livers by PET: clearly visualized

## ACDDQNPWARYADLLFPTDTLLLDL-NH2 [YJL-4]
[2]
  Secondary structure by CD: pH-dependent transition from the unstructured conformation to the α-helical structure

## {NOTA}-ACEEQNPWARYLKWLFPTKTLLLKL-NH2 [kVar7, pH-insensitive control peptide (Sosunov et al. 2013), negative control, reference compound]
[2]
  Secondary structure by CD: β-sheet conformation
